Test results: the supplement of paper PMC6445147
Values scatter widely in this assay.

B1: human tRNA-Pro; a variant is named by its letters at N, in order (parent)
chain: GGCTCGTTGGTCTAGNGGTATGATTCTCGCTTAGGGTGCGAGAGGTCCCGGGTTCNNATCCCGGACGAGCCC

Variants of: B1
Test: tRNA 3' processing efficiency (processed reads / all reads, maximum-likelihood estimate) (fraction); higher = more efficient 3' processing
Settings: HEK293T; construct: no Pol-II promoter ((-)CMV library)

Row | Variant | tRNA 3' processing efficiency
1 | GGCTCGTTGGTCTAGGGGATTGATTCTCGCTTAGGGTGCGAGAGGTCCCGGGTTCTCCTCCCGGACGAGCCC [GTC T19A A20T A58C] | 0.25
2 | GGCTCGTTGGTCTAGCGCTATGATTCTCGCTTAGGGTGCGAGAGGTCCCGGGTTCATAGCCCGGACGAGCCC [CAT G18C T59G] | 0.25
3 | GGCTCGTTGGTCTCCCGGTATGATTCTCGCTTAGGGTGCGAGAGGTCCCGGGTTCAAACCCCGGACGAGCCC [CAA A14C G15C T59C] | 0.4
4 | GGCTCGTTGGTCTAGCGGGATGATTCTCGCTTAGGGTGCGAGAGGTCCCGGGTTTAACTCCCGGACGAGCCC [CAA T19G C55T A58C] | 0.4
5 | GGCTCGTTGGTCTAGAGGTATGATTCTCGCTTAGGGTGCGAGAGGTCCCGGGCTCTATTCCCGGACGAGCCC [ATA T53C A58T] | 0.33
6 | GGCTCGTGGGTCTAGGGGCATGATTCTCGCTTAGGGTGCGAGAGGTCCCGGGTTCGAGACCCGGACGAGCCC [GGA T8G T19C A58G T59A] | 0.4
7 | GGCTCGTTGGTCTAAGGGAATGATTCTCGCTTAGGGTGCGAGAGGTCCCGGGTTCCATTCCCGGACGAGCCC [GCA G15A T19A A58T] | 0.25
8 | GGCTCGTTGGTCTAGTGCCATGATTCTCGCTTAGGGTGCGAGAGGTCCCGGGTTTGAATCCCGGACGAGCCC [TGA G18C T19C C55T] | 0.57
9 | GGCTCGTTGGTCTTGAGGTATGATTCTCGCTTAGGGTGCGAGAGGTCCCAGGTTCAAGTCCCGGACGAGCCC [AAA A14T G50A A58G] | 0.15
10 | GGCTCGTTGGTCTGGGGGTTTGATTCTCGCTTAGGGTGCGAGAGGTCCCGGGTACGAATCCCGGACGAGCCC [GGA A14G A20T T54A] | 0.5
11 | GGCTCGTTGGTCTCGAGGTGTGATTCTCGCTTAGGGTGCGAGAGGTCCCGGGTTCAGATCCCGGACGAGCCC [AAG A14C A20G] | 0.14
12 | GGCTCGTTGGTCTCAGTGTATGATTCTCGCTTAGGGTGCGAGAGGTCCCGGGTTCAGATCCCGGACGAGCCC [GAG A14C G15A G17T] | 0.29
13 | GGCTCGTTGGTCTAGAGGCATGATTCTCGCTTAGGGTGCGAGAGGTCCCGGGTTTTAATCCCGGACGAGCCC [ATA T19C C55T] | 0.25
14 | GGCTCGTTGGTCTAGGGCCATGATTCTCGCTTAGGGTGCGAGAGGTCCCGGGATCTAATCCCGGACGAGCCC [GTA G18C T19C T53A] | 0.44
15 | GGCTCGTTGGTCTGGGTGTATGATTCTCGCTTAGGGTGCGAGAGGTCCCGGGTTCACAACCCGGACGAGCCC [GAC A14G G17T T59A] | 0.25
16 | GGCTCGTTGGTCTAGGGGATTGATTCTCGCTTAGGGTGCGAGAGGTCCCGGGTTCTAGGCCCGGACGAGCCC [GTA T19A A20T A58G T59G] | 0.45
17 | GGCTCGTTGGTCTAGCGGCTTGATTCTCGCTTAGGGTGCGAGAGGTCCCGGGTTCTACTCCCGGACGAGCCC [CTA T19C A20T A58C] | 0.21
18 | GGCTCGTTGGTCTCGGGGCATGATTCTCGCTTAGGGTGCGAGAGGTCCCGGGTACAAATCCCGGACGAGCCC [GAA A14C T19C T54A] | 0.25
19 | GGCTCGTTGGTCTGGCTGTATGATTCTCGCTTAGGGTGCGAGAGGTCCCGGGTTCGTAACCCGGACGAGCCC [CGT A14G G17T T59A] | 0.15

Quoted from the listing:
In tRNA 3' processing efficiency, GGCTCGTTGGTCTAGCGCTATGATTCTCGCTTAGGGTGCGAGAGGTCCCGGGTTCATAGCCCGGACGAGCCC [CAT G18C T59G] is entered as 0.25
In tRNA 3' processing efficiency, GGCTCGTTGGTCTTGAGGTATGATTCTCGCTTAGGGTGCGAGAGGTCCCAGGTTCAAGTCCCGGACGAGCCC [AAA A14T G50A A58G] is entered as 0.15
In tRNA 3' processing efficiency, GGCTCGTTGGTCTAGGGCCATGATTCTCGCTTAGGGTGCGAGAGGTCCCGGGATCTAATCCCGGACGAGCCC [GTA G18C T19C T53A] is entered as 0.44

Following part:

Row | Variant | tRNA 3' processing efficiency
20 | GGCTCGTTGGTCTAGTGGAATGATTCTCGCTTAGGGTGCGAGAGGTCCCGGGTTCAGGGCCCGGACGAGCCC [TAG T19A A58G T59G] | 0.4
21 | GGCTCGTTAGTCTTGGGGCATGATTCTCGCTTAGGGTGCGAGAGGTCCCGGGTTCTAATCCCGGACGAGCCC [GTA G9A A14T T19C] | 0.5
22 | GGCTCGTTGGTCTAGGGGTATGATTCTCGCTTGGGGTGCGAGAGGTCCCGGGTTCGATACCCGGACGAGCCC [GGA A33G A58T T59A] | 0.45
23 | GGCTCGTTAGTCTAGGGGTATGATTCTCGCTTAGGGTGCGAGAGGTCCCGGGATCTAATCCCGGACGAGCCC [GTA G9A T53A] | 0.25
24 | GGCTCGTTTGTCTAGTGGTATGATTCTCGCTTAGGGTGCGAGAGGTCCCGGGTTCTACTCCCGGACGAGCCC [TTA G9T A58C] | 0.5
25 | GGCTCGTTGGTCTAGCGGCATGATTCTCGCTTAGGGTGCGAGAGTTCCCGGGTTCTACTCCCGGACGAGCCC [CTA T19C G45T A58C] | 0.85
26 | GGCTCGTTGGTCTAGCGGAATGATTCTCGCTTAGGGTGCGAGAGGTCCCGGGGTCAAAGCCCGGACGAGCCC [CAA T19A T53G T59G] | 0.33
27 | GGCTCGTTGGTCTAGTGGTATGATTCTCGCTTAGGGTGCGAGAGGTCCCTGGTTCAAATCCCGGACGAGCCC [TAA G50T] | 0.38
28 | GGCTCGTTGGTCTAGGGGCTTGATTCTCGCTTAGGGTGCGAGAGGTCCCGGGTTCAGGCCCCGGACGAGCCC [GAG T19C A20T A58G T59C] | 0.36
29 | GGCTCGTTTGTCTAGGGGTATGATTCTCGCTTGGGGTGCGAGAGGTCCCGGGTTCAACTCCCGGACGAGCCC [GAA G9T A33G A58C] | 0.83
30 | GGCTCGTTGGTCTGGGGGTATGATTCTCGCTTAGGGTGCGAGAGGTCCCGGGAACGAATCCCGGACGAGCCC [GGA A14G T53A T54A] | 0.16
31 | GGCTCGTTGGTCTAGGGGAATGATTCTCGCTTAGGGTGCGAGAGGTCCCGGGATCTAGTCCCGGACGAGCCC [GTA T19A T53A A58G] | 0.42
32 | GGCTCGTTGGTCTAGGGGTATGATTCTCGCTTAGGGTGCGAGAGGTCCCAGGATCGATACCCGGACGAGCCC [GGA G50A T53A A58T T59A] | 0.5
33 | GGCTCGTTGGTCTTGGGGTATGATTCTCGCTTGGGGTGCGAGAGGTCCCGGGTTCAACTCCCGGACGAGCCC [GAA A14T A33G A58C] | 0.4
34 | GGCTCGTTGGTCTTGAGGGATGATTCTCGCTTAGGGTGCGAGAGGTCCCGGGTTCAAGTCCCGGACGAGCCC [AAA A14T T19G A58G] | 0.32
35 | GGCTCGTCAGTCTTGGGGTATGATTCTCGCTTAGGGTGCGAGAGGTCCCGGGTTCGAACCCCGGACGAGCCC [GGA T8C G9A A14T T59C] | 0.14
36 | GGCTCGTTGGTCTACGCGGATGATTCTCGCTTAGGGTGCGAGAGGTCCCGGGTTCTAATCCCGGACGAGCCC [GTA G15C G17C T19G] | 0.43
37 | GGCTCGTTGGTCTCGGGGTATGATTCTCGCTTAGGGTGCGAGAGGTCCCGGGATCAACGCCCGGACGAGCCC [GAA A14C T53A A58C T59G] | 0.4
38 | GGCTCGTTGGTCTACCGGTATGATTCTCGCTTAGGGTGCGAGAGGTCCCGGGATCAAGTCCCGGACGAGCCC [CAA G15C T53A A58G] | 0.4
